From patent publication US20240181000A1, “LGG-DERIVED PEPTIDES AND METHODS OF USE THEREOF” (Ohio State Innovation Foundation, priority 2021, published 2024)
At least one peptide structure holds a part that was inferred or is arguable (an end, a ring closure or a residue). No end group written: not given here.

Legend:
biofilm protected APEC = experiment: MBEC-HTP assay; assay type: cell-based, E. coli; details: at MICs, 18 h; untreated 7.54 ± 0.07
Method: MBEC™-HTP assay: To test the efficacy of the peptides (P1, P2, and P3) against biofilm protected APEC, Innovotech's MBEC Assay® was conducted as described previously(27). Briefly, 150 μL of 0.05 OD600 (5×10^7 CFU/mL) adjusted APEC suspension in LB media was aliquoted into the wells of MBEC™ device containing polystyrene pegs and incubated for 36 h on a rocker platform at 37° C. to allow the biofilm formation. After biofilm formation, the pegs were washed to remove loosely adherent planktonic bacteria and transferred to a new 96-well plate (challenge plate) containing peptides at MICs in 200 μL diluted (25%) LB media. The diluted LB media mimics the minimal media which stimulates biofilm formation and maintenance. The plate was incubated for 18 h at 37° C. with rotation at 150 rpm. Sterile media and DMSO (solvent) were used as controls. Following incubation, the MICs of peptides in challenge plate were recorded. The peptides exposed pegs were transferred to new 96-well plate containing PBS and sonicated for 30 mins to disrupt the biofilm. The sonicated suspensions were then ten-fold serially diluted and plated on LB agar plates to enumerate the biofilm protected bacteria and the minimum biofilm eradication concentration (MBEC) of peptides were determined. Three independent experiments were conducted.

APEC O78 = assay type: cell-based, E. coli; details: 100% APEC growth inhibition
Method: Anti-APEC activity determination: The anti-APEC activity of peptides was determined in LB broth following CLSI guidelines. Briefly, overnight grown APEC O78 was adjusted to 5×10^5 CFU/mL concentration in fresh LB media. One-hundred microliters of APEC suspension was aliquoted into the wells of the 96-well plate. Peptides were added to the wells at 6 mM and 12 mM concentrations and incubated at 37° C. in TECAN Sunrise™ absorbance microplate reader with kinetic absorbance measurement set at every 30 mins for 12 h. Sterile media and DMSO (solvent) were used as controls. The growth inhibitory activity of the peptides against APEC was calculated using the formula: (OD600 DMSO treated well−OD600 peptide treated well)/OD600 DMSO treated well×100%.
The minimum inhibitory concentration (MIC) was determined for selected peptides (P1, P2, P3, and P4) using similar assay as above. Peptides were added to the wells of the 96-well plate at 6 mM, 9 mM, 12 mM, 15 mM, and 18 mM concentrations. The peptide concentration at which there is no visible APEC growth (no OD increase) was determined as MIC. Two independent experiments were conducted.
Arginine and lysine substituted peptide analogues: The non-essential amino acid residues identified in each peptide were substituted with arginine/lysine to test whether these substitutions enhance the anti-APEC activity of peptides. […]

Row | Substance | Biofilm protected APEC (log CFU/mL) (biofilm protected APEC) | MIC (APEC O78) [mM]
1 | VHTAPK [Peptide P3, VHTAPK] | 0.00 ± 0.00 | 18
2 | NPSRQERR [Peptide P1] | 0.00 ± 0.00 | 18
